B1: Q60932 (protein, UniProt Q60932 1-296, looked up)
chain: MCSFFLVLLLWQNMAVPPTYADLGKSARDVFTKGYGFGLIKLDLKTKSENGLEFTSSGSANTETTKVNGSLETKYRWTEYGLTFTEKWNTDNTLGTEITVEDQLARGLKLTFDSSFSPNTGKKNAKIKTGYKREHINLGCDVDFDIAGPSIRGALVLGYEGWLAGYQMNFETSKSRVTQSNFAVGYKTDEFQLHTNVNDGTEFGGSIYQKVNKKLETAVNLAWTAGNSNTRFGIAAKYQVDPDACFSAKVNNSSLIGLGYTQTLKPGIKLTLSALLDGKNVNAGGHKLGLGLEFQA
modifications: full-length
B2: Q9WUQ2 (protein, UniProt Q9WUQ2 1-417, looked up)
chain: MGRRRGVELYRAPFPLYALRIDPKTGLLIAAGGGGAAKTGIKNGVHFLQLELINGCLSASLLHSHDTETRATMNLALAGDILAAGQDAQCQLLRFQVHQQKGSKAEKSGSKEQGPRQRKGAPPAEKKSGAQVHPEGVELKVKNLEAVQTDFSNEPLQKVVCFNHDNTLLATGGTDGHVRVWKVPSLEKVLEFKAHEGEIGDLTLGPDGKLVTVGWDFKASVWQKDQLVTQLQWQENGPASSNTPYRYQACRFGQVPDQLGGLRLFTVQIPHKRLRQPPPCYLTAWDSSTFLPLRTRSCGHEVISCLSVSDSGTFLGLGTVTGSVAIYIAFSLQRLYYVKEAHGIVVTDVTFLPEKGCGPKLLGPHETALFSVAVDSRCQLHLLPSRRSVPVWLLLLLCVGLIIVTILLLQTAFPGFL
modifications: full-length
B3: Q9D8K3 (protein, UniProt Q9D8K3 1-228, looked up)
chain: MAGQRLAAGFLQVPAVTRAYTAACVLTTAAVQLELLSPFQLYFNPHLVFRKFQVWRLITTFLFFGPLGFGFFFNMLFVFRYCRMLEEGSFRGRKADFVFMFLFGGVLMTLLGFLGSLFFLGQALMAMLVYVWSRRSPHVRVNFFGLLNFQAPFLPWALMGFSLLLGNSVVTDLLGILVGHIYYFLEDVFPNQPGGKRLLLTPSVLKLLLDDPQEDPDYLPLPEEQPEL
modifications: full-length
B4: Q3TDQ1 (protein, UniProt Q3TDQ1 1-823, looked up)
chain: MAEPSAPESKHKSSLNSSPWSGLMALGNSRHGHHGPGTQSASSAAAPKPGPPAGLSGGLSQPAGWQSLLSFTILFLAWLAGFSSRLFAVIRFESIIHEFDPWFNYRSTHHLASHGFYEFLNWFDERAWYPLGRIVGGTVYPGLMITAGLIHWILNTLNITVHIRDVCVFLAPTFSGLTSISTFLLTRELWNQGAGLLAACFIAIVPGYISRSVAGSFDNEGIAIFALQFTYYLWVKSVKTGSVFWTMCCCLSYFYMVSAWGGYVFIINLIPLHVFVLLLMQRYSKRVYIAYSTFYIVGLILSMQIPFVGFQPIRTSEHMAAAGVFALLQAYAFLQYLRDRLTKQEFQTLFFLGVSLAAGAVFLSVIYLTYTGYIAPWSGRFYSLWDTGYAKIHIPIIASVSEHQPTTWVSFFFDLHILVCTFPAGLWFCIKNINDERVFVALYAISAVYFAGVMVRLMLTLTPVVCMLSAIAFSNVFEHYLGDDMKRENPPVEDSSDEDDKRNPGNLYDKAGKVRKHVTEQEKPEEGLGPNIKSIVTMLMLMLLMMFAVHCTWVTSNAYSSPSVVLASYNHDGTRNILDDFREAYFWLRQNTDEHARVMSWWDYGYQIAGMANRTTLVDNNTWNNSHIALVGKAMSSNETAAYKIMRSLDVDYVLVIFGGVIGYSGDDINKFLWMVRIAEGEHPKDIREGDYFTQQGEFRVDKAGSPTLLNCLMYKMSYYRFGEMQLDFRTPPGFDRTRNAEIGNKDIKFKHLEEAFTSEHWLVRIYKVKAPDNRETLGHKPRVTNIVPKQKYLSKKTTKRKRGYVKNKLVFKKGKKTSKKTV
modifications: full-length
B5: Q99JR1 (protein, UniProt Q99JR1 1-322, looked up)
chain: MSGEVPPNINIKEPRWDQSTFIGRASHFFTVTDPRNILLTNEQLENARKVVHDYRQGIVPAGLTENELWRAKYAYDSAFHPDTGEKMTLIGRMSAQVPMNMTITGCMMTFYRTTPAVLFWQWINQSFNAVVNYTNRSGDAPLTVNELGTAYVSATTGAVATALGLNALTKRVSPLIGRFVPFAAVAAANCINIPLMRQRELKVGIPVTDENGTRLGESTNAAKQAITQVVISRILMAAPGMAIPPFIMNTLEKKAFLKRFPWMSAPIQVTLVGFCLVFATPLCCALFPQKSSMSVTSLEDELQASIQRTHPEIRRVYFNKGL
modifications: full-length
B6: Q9DBG7 (protein, UniProt Q9DBG7 1-636, looked up)
chain: MLDFFTIFSKGGLVLWCFQGVSDSCTGPVNALIRSVLLQERGGNNSFTHEALTLKYKLDNQFELVFVVGFQKILTLTYVDKLIDDVHRLFRDKYRTEIQQQSALSLLNGTFDFQNDFLRLLREAEESSKIRAPTTMKKFEDSEKAKKPVRSMIETRGEKTKEKAKNNKKRGAKKEGSDGTLATSKTAPAEKSGLSAGPENGELSKEELIRRKREEFIQKHGKGLDKSSKSTKSDTPKEKGKKAPRVWELGGCANKEVLDYSTPTTNGTPEAALSEDINLIRGTGPGGQLQDLDCSSSDDEGATQNTKPSATKGTLGGMFGMLKGLVGSKSLSREDMESVLDKMRDHLIAKNVAADIAVQLCESVANKLEGKVMGTFSTVTSTVKQALQESLVQILQPQRRVDMLRDIMDAQRRQRPYVVTFCGVNGVGKSTNLAKISFWLLENGFSVLIAACDTFRAGAVEQLRTHTRRLTALHPPEKHGGRTMVQLFEKGYGKDAAGIAMEAIAFARNQGFDVVLVDTAGRMQDNAPLMTALAKLITVNTPDLVLFVGEALVGNEAVDQLVKFNRALADHSMAQTPRLIDGIVLTKFDTIDDKVGAAISMTYITSKPIVFVGTGQTYCDLRSLNAKAVVAALMKA
modifications: full-length
B7: Q9D1Q4 (protein, UniProt Q9D1Q4 1-92, looked up)
chain: MTKLTQWLWGLALLGSAWAALTMGALGLELPFPCREVLWPLPAYLLVSAGCYALGTVGYRVATFHDCEDAARELQSQIVEARADLARRGLRF
modifications: full-length
B8: P35276 (protein, UniProt P35276 1-219, looked up)
chain: MASASEPPASPRDAADQNFDYMFKLLLIGNSSVGKTSFLFRYADDSFTPAFVSTVGIDFKVKTVYRHDKRIKLQIWDTAGQERYRTITTAYYRGAMGFLLMYDIANQESFTAVQDWATQIKTYSWDNAQVILVGNKCDLEDERVVPAEDGRRLADDLGFEFFEASAKENINVKQVFERLVDIICDKMNESLEPSSSPGSNGKGPALGDTPPPQPSSCSC
modifications: full-length
B9: Q3TCT4 (protein, UniProt Q3TCT4 1-606, looked up)
chain: MARISFSYLCPASWYFTVPTVSPFLRQRVAFLGLFFIPCVLLLLLIMDLRHWATSLPRDRQYERYLARVGDLEATNTEDPNLNYGLVVDCGSSGSRIFVYFWPRHNGNPHDLLDIKQMRDRNSQPVVKKIKPGISAMADTPEHASDYLRPLLSFAAAHVPVKKHRETPLYILCTAGMRLLPERQQLAILADLVKDLPLEFDFLFSQSQAEVISGKQEGVYAWIGINFVLGRFDHEDESDSDTSVDSAAGRRRTVGILDMGGASLQIAYEVPTSASDLPPKQEEAAKILLAEFNLGCDVQHTEHVYRVYVTTFLGFGGNFARQRYEDLVLNETLNKNRLLGQKTGLSPDNPFLDPCLPVGLTDMVKRNNQVLHFRGKGDWASCRTLLSPLLARSNTSQASLNGIYQSPIDFNNSEFYGFSEFFYCTEDVLRIGGHYHGPTFAKAAQDYCGMAWPVLAQRFKNGLFSSHADEHRLKYQCFKSAWMYEVLHEGFHFPYDYPNLQTAQLVYDREVQWTLGAILYKTRFLPLRDLRQGQGGVRPAHGSWLRLSFVYNHYLFFACTLVVLLAIVLYLLRIHRIHRRQTRASAPLDLLWIEQVVPMIGVQVGP
modifications: full-length

assay: Proteomic analysis of native murine pancreata and decelled pancreatic ECM (Table 1); parameters: species or system mouse; settings: Native pancreas tissue

Molecule | Mean of log2(intensities) [a.u.]
B1 | 29.41
B2 | 28.00
B3 | 24.62
B4 | 27.60
B5 | 27.21

same assay, conditions: Pancreatic ECM (decelled)

Molecule | Mean of log2(intensities) [a.u.]
B1 | 31.11
B2 | 29.62
B3 | 26.23
B4 | 29.17
B5 | 28.73

same assay, conditions: decelled pancreatic ECM (spin-decell protocol)

Molecule | Mean of log2(intensities), Pancreatic ECM [a.u.]
B6 | 30.88
B7 | 26.66
B8 | 29.41
B9 | 22.78

same assay, conditions: native murine pancreas tissue

Molecule | Mean of log2(intensities), Native pancreas tissue [a.u.]
B6 | 29.39
B7 | 25.27
B8 | 28.02
B9 | 21.48

— patent US20240108662A1, “ENGINEERED CELLS FUNCTIONALIZED WITH IMMUNE CHECKPOINT MOLECULES AND USES THEREOF” (The University of North Carolina at Chapel Hill, priority 2020, published 2024)
